Taken from: PubChem BioAssay AID743121 (NCATS, 2013)
This is a random part of about 26,000 reagents tested. 167 of them (0.63%) count as active. 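Calls are per gene from RSA p-values that are not deposited; an individual active-marked siRNA can sensitise only weakly.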 A number with no mark means an inactive call. Reagents against one gene are numbered here. Not all columns of the deposit are shown. Reagent sequences are not shown.

- Test: 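Partners whose loss is lethal together with topoisomerase I blockade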 (primary screen)
- System: MDA-MB-231 cells, a human breast cancer line
- Reagents: single siRNA against human genes, 20 nM siRNA (0.8 pmol per well)
- Timing: 120 h (drug added 48 h after transfection, read 72 h later)
- Treatment: camptothecin 20 nM (about EC30) for 72 h; vehicle 0.1% DMSO in parallel plates
- Measured: 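CellTiter-Glo ATP signal, scaled to control siRNA as percent viability; sensitisation given as log2 of untreated divided by camptothecin-treated viability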
- Scale: log2 vehicle/camptothecin viability: higher = stronger sensitisation to camptothecin
- Active means: 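Active genes have an RSA gene-level p-value below 0.001, computed from the ratios of their separate siRNAs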

| target gene | reagent no. | log2 vehicle/camptothecin viability |
| --- | --- | --- |
| LGR6 | 1 | -0.393 |
| LGR6 | 2 | 0.31 |
| LGR6 | 3 | -0.365 |
| LGR6 | 4 | 0.318 |
| PPP3R1 | 1 | -0.381 |
| PPP3R1 | 2 | -0.501 |
| PPP3R1 | 3 | 0.597 |
| PPP3R1 | 4 | -0.256 |
| IL38 | 1 | -0.592 |
| IL38 | 2 | -0.408 |
| IL38 | 3 | -0.323 |
| IL38 | 4 | 0.136 |
| ATP2B2 | 1 | -0.159 |
| ATP2B2 | 2 | 0.123 |
| ATP2B2 | 3 | -0.177 |
| ATP2B2 | 4 | -0.472 |
| ECE2 | 1 | 0.144 |
| ECE2 | 2 | -0.158 |
| ECE2 | 3 | -0.0129 |
| ECE2 | 4 | 0.0507 |
| ECE2 | 5 | 0.412 |
| ECE2 | 6 | -0.334 |
| LATS1 | 1 | -0.263 |
| LATS1 | 2 | -0.291 |
| LATS1 | 3 | 1.2 |
| LATS1 | 4 | -0.684 |
| NUDT4 | 1 | 0.299 |
| NUDT4 | 2 | -0.0477 |
| NUDT4 | 3 | 0.106 |
| NUDT4 | 4 | 0.464 |

2 entries from above, arranged by “log2 vehicle/camptothecin viability”, high to low.
| target gene | reagent no. | log2 vehicle/camptothecin viability |
| --- | --- | --- |
| NUDT4 | 1 | 0.299 |
| LATS1 | 4 | -0.684 |
